Some of the results follow.
How the values were obtained:
Test in all cases: log2 fold change, soluble protein after heating vs DMSO (PISA); higher = thermal stabilisation; K562 lysate, 10 uM; active = over 0.2 and 3.5 SD of the protein, either way, in both replicates (recomputed)
vemurafenib = compound: CCCS(=O)(=O)Nc1ccc(F)c(C(=O)c2c[nH]c3ncc(-c4ccc(Cl)cc4)cc23)c1F [vemurafenib]
Outline: (§1)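 Soluble protein was defined as the supernatant remaining after 21,000xg for 90 min, following pooling of heated aliquots and adjustment to 0.5% NP-40 at 4°C. Before that, crude K562 extract at 1 mg/mL protein in PBS pH 7.4 with 1 mM MgCl2 was treated with 10 μM compound for 30 min and heated for 3 min across 48°C-58°C. Quantification used TMTpro 16plex LC-MS/MS with channel sums equalised, and values are log-two fold changes in thermal stability relative to solvent controls from duplicates.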

Chains of the proteins cited; added tags and fusions are not shown. Lines headed by an entry give the natural chain unless they say otherwise; changes in a name come on top.
UniProt P29083: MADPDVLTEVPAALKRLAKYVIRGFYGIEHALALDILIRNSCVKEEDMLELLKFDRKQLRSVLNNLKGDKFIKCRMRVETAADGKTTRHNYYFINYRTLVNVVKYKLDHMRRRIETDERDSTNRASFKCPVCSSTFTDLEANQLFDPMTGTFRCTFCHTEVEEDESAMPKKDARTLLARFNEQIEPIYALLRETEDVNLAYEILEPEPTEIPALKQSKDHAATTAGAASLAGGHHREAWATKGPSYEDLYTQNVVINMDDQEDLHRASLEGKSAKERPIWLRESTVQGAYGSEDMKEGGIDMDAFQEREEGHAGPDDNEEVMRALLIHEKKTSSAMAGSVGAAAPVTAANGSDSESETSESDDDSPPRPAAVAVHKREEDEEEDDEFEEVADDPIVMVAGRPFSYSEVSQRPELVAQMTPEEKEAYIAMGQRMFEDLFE
UniProt Q8WUA4: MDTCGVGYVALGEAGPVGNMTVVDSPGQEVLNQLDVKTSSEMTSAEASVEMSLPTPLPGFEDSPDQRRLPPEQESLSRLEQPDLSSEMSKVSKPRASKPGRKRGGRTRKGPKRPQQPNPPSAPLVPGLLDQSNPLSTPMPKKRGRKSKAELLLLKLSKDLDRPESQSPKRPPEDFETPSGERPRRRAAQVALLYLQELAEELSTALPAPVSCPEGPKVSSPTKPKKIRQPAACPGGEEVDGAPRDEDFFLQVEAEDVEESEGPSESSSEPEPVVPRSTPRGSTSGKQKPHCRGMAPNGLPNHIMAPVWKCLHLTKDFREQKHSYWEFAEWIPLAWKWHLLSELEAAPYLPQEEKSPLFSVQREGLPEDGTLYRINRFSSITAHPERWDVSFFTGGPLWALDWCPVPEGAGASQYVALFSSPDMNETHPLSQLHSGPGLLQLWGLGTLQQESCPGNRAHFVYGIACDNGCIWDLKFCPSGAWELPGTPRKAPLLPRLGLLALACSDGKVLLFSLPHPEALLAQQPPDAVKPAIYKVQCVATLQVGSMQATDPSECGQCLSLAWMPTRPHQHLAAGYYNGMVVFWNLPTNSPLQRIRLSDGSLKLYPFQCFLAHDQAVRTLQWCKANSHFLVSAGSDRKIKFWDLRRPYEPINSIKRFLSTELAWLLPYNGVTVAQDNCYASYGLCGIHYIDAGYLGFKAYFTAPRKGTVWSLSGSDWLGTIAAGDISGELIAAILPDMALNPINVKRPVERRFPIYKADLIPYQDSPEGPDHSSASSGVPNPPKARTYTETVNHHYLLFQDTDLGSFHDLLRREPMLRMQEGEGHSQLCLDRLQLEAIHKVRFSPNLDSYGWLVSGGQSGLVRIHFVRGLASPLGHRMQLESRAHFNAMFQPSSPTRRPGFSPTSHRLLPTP
UniProt Q9UBQ7: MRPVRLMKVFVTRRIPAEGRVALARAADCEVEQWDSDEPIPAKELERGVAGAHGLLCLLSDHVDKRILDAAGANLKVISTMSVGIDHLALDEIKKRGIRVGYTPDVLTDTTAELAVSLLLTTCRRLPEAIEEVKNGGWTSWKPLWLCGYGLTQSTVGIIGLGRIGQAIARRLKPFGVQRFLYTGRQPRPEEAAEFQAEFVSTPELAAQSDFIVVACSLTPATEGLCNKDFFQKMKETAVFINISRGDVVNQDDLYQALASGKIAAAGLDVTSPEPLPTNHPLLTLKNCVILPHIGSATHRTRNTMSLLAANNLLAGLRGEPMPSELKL
UniProt Q9Y2Q3: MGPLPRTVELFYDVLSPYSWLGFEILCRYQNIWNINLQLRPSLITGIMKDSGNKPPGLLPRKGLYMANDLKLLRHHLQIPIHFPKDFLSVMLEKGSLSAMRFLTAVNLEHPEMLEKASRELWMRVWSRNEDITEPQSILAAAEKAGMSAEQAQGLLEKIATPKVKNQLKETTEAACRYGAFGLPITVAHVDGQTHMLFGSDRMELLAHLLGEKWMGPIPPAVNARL
UniProt P55084: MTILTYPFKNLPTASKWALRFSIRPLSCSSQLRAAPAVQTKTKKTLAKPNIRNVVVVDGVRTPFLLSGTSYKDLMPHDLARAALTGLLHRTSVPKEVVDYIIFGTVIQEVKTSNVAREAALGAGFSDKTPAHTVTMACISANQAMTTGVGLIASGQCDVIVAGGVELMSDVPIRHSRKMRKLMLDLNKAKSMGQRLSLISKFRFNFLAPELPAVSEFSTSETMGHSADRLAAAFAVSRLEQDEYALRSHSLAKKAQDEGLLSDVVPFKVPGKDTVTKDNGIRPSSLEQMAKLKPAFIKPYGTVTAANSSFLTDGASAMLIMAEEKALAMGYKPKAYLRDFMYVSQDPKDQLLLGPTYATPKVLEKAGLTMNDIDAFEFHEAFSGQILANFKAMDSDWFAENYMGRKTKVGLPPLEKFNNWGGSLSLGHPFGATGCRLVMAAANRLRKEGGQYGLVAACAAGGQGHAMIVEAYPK
UniProt P00390: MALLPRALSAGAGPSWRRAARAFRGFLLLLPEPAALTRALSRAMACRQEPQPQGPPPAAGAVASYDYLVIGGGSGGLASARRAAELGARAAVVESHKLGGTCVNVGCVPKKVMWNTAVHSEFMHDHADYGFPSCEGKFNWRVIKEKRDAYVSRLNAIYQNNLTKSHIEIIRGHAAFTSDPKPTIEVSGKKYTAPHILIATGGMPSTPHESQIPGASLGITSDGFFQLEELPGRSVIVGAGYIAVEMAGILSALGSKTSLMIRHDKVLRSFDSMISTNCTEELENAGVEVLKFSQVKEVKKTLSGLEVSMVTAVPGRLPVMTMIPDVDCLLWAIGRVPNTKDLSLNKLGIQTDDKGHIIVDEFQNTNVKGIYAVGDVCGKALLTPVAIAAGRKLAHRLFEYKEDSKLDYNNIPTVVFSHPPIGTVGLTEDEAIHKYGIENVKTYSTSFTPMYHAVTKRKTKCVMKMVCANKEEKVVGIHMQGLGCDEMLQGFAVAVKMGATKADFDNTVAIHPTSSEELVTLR
UniProt P69892: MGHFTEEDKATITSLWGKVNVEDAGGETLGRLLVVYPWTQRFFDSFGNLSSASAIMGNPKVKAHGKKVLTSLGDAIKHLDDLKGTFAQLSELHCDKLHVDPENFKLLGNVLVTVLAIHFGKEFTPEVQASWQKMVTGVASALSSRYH

[1] = compound: CCCS(=O)(=O)Nc1ccc(F)c(C(=O)c2c[nH]c3ncc(Cl)cc23)c1F
Outline: as §1

barasertib = compound: CCN(CCCOc1ccc2c(Nc3cc(CC(=O)Nc4cccc(F)c4)[nH]n3)ncnc2c1)CCOP(=O)(O)O [barasertib]
Outline: as §1

[2] = compound: CC[C@@H]1C(=O)N(C)c2cnc(Nc3ccc(C(=O)NC4CCN(C)CC4)cc3OC)nc2N1C1CCCC1
Outline: as §1

volasertib = compound: CC[C@@H]1C(=O)N(C)c2cnc(Nc3ccc(C(=O)N[C@H]4CC[C@H](N5CCN(CC6CC6)CC5)CC4)cc3OC)nc2N1C(C)C [volasertib]
Outline: as §1

[3] = compound: CCn1c(C(=O)N(C2CC2)C2CC2)cc2c3c(ncn3C)c(Nc3cc(C)n(C)n3)nc21
Outline: as §1

[4] = compound: CCn1cc(-c2ccnc3[nH]c(-c4cccc(CN(C)C)c4)cc23)c(-c2ccc(NC(=O)N(C)C)cc2)n1
Outline: as §1

[5] = compound: CN1CCC(CNc2ccc3ncc(-c4cccc(OC(F)(F)F)c4)n3n2)CC1
Outline: as §1

saracatinib = compound: CN1CCN(CCOc2cc(OC3CCOCC3)c3c(Nc4c(Cl)ccc5c4OCO5)ncnc3c2)CC1 [saracatinib]
Outline: as §1

sotrastaurin = compound: CN1CCN(c2nc(C3=C(c4c[nH]c5ccccc45)C(=O)NC3=O)c3ccccc3n2)CC1 [sotrastaurin]
Outline: as §1

alvocidib = compound: CN1CC[C@H](c2c(O)cc(O)c3c(=O)cc(-c4ccccc4Cl)oc23)[C@H](O)C1 [alvocidib]
Outline: as §1

Tubastatin A = compound: CN1CCc2c(c3ccccc3n2Cc2ccc(C(=O)NO)cc2)C1 [Tubastatin A]
Outline: as §1

[6] = compound: CNC(=O)C1=CC=CC=C1NC2=NC(=NC=C2Cl)NC3=C(C=C(C=C3)N4CCOCC4)OC
Outline: as §1

defactinib = compound: CNC(=O)c1ccc(Nc2ncc(C(F)(F)F)c(NCc3nccnc3N(C)S(C)(=O)=O)n2)cc1 [defactinib]
Outline: as §1

[7] = compound: CNc1nc(-c2ccc3c(N)n[nH]c3c2)cc(N2C[C@@H](C(=O)NC3CCCCC3)CC[C@H]2C)n1
Outline: as §1

encorafenib = compound: COC(=O)N[C@@H](C)CNc1nccc(-c2cn(C(C)C)nc2-c2cc(Cl)cc(NS(C)(=O)=O)c2F)n1 [encorafenib]
Outline: as §1

[8] = compound: COC(=O)[C@H](CCSC)NC(=O)C1=C(C=C(C=C1)NC[C@H](CS)N)C2=CC=CC=C2
Outline: as §1

alisertib = compound: COc1cc(Nc2ncc3c(n2)-c2ccc(Cl)cc2C(c2c(F)cccc2OC)=NC3)ccc1C(=O)O [alisertib]
Outline: as §1

[9] = compound: COc1cc2nc(-c3cc(F)ccc3O)nc(N[C@@H]3CNC[C@H]3C(C)(C)O)c2cc1OC
Outline: as §1

gefitinib = compound: COc1cc2ncnc(Nc3ccc(F)c(Cl)c3)c2cc1OCCCN1CCOCC1 [gefitinib]
Outline: as §1

Measured: log2 fold change

GTF2E1 (UniProt P29083)
inactive: vemurafenib 0.011 | [1] 0.021 | barasertib -0.003 | [2] 0.014 | volasertib 0.025 | [3] -0.014 | [4] -0.181 | [5] 0.051 | saracatinib -0.02 | sotrastaurin 0.011 | alvocidib -0.042 | Tubastatin A 0.039 | [6] 0.03 | defactinib 0.022 | [7] 0.029 | encorafenib 0.031 | [8] -0.016 | alisertib 0.033 | [9] -0.008 | gefitinib 0.004

GTF3C2 (UniProt Q8WUA4)
inactive: vemurafenib -0.005 | [1] 0.056 | barasertib 0.134 | [2] 0.017 | volasertib -0.223 | [3] -0.005 | [4] -0.115 | [5] 0.066 | saracatinib -0.051 | sotrastaurin 0.011 | alvocidib -0.007 | Tubastatin A -0.103 | [6] 0.034 | defactinib 0.026 | [7] 0.025 | encorafenib -0.041 | [8] 0.057 | alisertib 0.029 | [9] 0.037 | gefitinib 0.008

GRHPR (UniProt Q9UBQ7)
inactive: vemurafenib 0.011 | [1] 0.013 | barasertib -0.006 | [2] 0.041 | volasertib -0.013 | [3] -0.011 | [4] 0.153 | [5] -0.1 | saracatinib -0.017 | sotrastaurin -0.027 | alvocidib 0.099 | Tubastatin A 0.012 | [6] 0.027 | defactinib -0.011 | [7] 0.01 | encorafenib -0.056 | [8] -0.034 | alisertib 0.006 | [9] 0.008 | gefitinib -0.005

GSTK1 (UniProt Q9Y2Q3)
inactive: vemurafenib 0.024 | [1] -0.008 | barasertib 0.079 | [2] 0.011 | volasertib 0.003 | [3] -0.004 | [4] -0.035 | [5] -0.009 | saracatinib 0.013 | sotrastaurin -0.023 | alvocidib 0.026 | Tubastatin A 0.03 | [6] -0.031 | defactinib 0.029 | [7] 0.005 | encorafenib 0.007 | [8] -0.007 | alisertib 0.008 | [9] 0.003 | gefitinib -0.032

H2AFX (UniProt P16104)
inactive: vemurafenib 0.008 | [1] -0.001 | barasertib -0.04 | [2] 0.05 | volasertib -0.043 | [3] 0.029 | [4] -0.017 | [5] 0.002 | saracatinib -0.065 | sotrastaurin -0.057 | alvocidib -0.105 | Tubastatin A 0.035 | [6] -0.024 | defactinib 0.042 | [7] 0.091 | encorafenib 0.002 | [8] 0.078 | alisertib -0.074 | [9] -0.012 | gefitinib -0.009

HADHB (UniProt P55084)
inactive: vemurafenib -0.019 | [1] -0.004 | barasertib -0.124 | [2] 0.047 | volasertib 0.099 | [3] -0.005 | [4] -0.001 | [5] 0.074 | saracatinib 0.012 | sotrastaurin -0.069 | alvocidib -0.046 | Tubastatin A 0.033 | [6] 0.081 | defactinib -0.065 | [7] -0.03 | encorafenib -0.058 | [8] 0.072 | alisertib -0.019 | [9] -0.019 | gefitinib 0.022

GSR (UniProt P00390)
inactive: vemurafenib 0.027 | [1] 0.007 | barasertib -0.027 | [2] -0.014 | volasertib 0.047 | [3] 0.01 | [4] -0.171 | [5] 0.069 | saracatinib 0.015 | sotrastaurin -0.02 | alvocidib -0.001 | Tubastatin A 0.036 | [6] 0.023 | defactinib 0.028 | [7] 0.068 | encorafenib -0.011 | [8] -0.07 | alisertib -0.002 | [9] -0.015 | gefitinib -0.003

HBG2 (UniProt P69892)
inactive: vemurafenib -0.024 | [1] -0.005 | barasertib 0.129 | [2] 0.05 | volasertib 0.057 | [3] 0.022 | [4] 0.008 | [5] -0.092 | saracatinib 0.01 | sotrastaurin -0.035 | alvocidib 0.087 | Tubastatin A 0.044 | [6] 0.015 | defactinib 0.117 | [7] 0.062 | encorafenib 0.021 | [8] -0.026 | alisertib 0 | [9] 0 | gefitinib -0.079

— the supplement of paper PMC10849652
